Laboratory results: PubChem BioAssay AID504834 (National Center for Advancing Translational Sciences (NCATS), 2011)
The campaign covered roughly 320,000 compounds. About 22,000 (6.9%) were called active. Inconclusive means that the source gave no clear call. Such entries were picked first, then a sample of the others. Calls come from the whole dose curve; as a rule, active = well fitted inhibition curve with a large enough effect; inconclusive = small, poorly fitted or top-dose-only effect, or another doubt; inactive = no such curve, though single readings can be large or run the other way. Potencies beside an inconclusive call are fits to weak or partial responses and may not hold up.

Assay: Primary qHTS for delayed death inhibitors of the malarial parasite plastid, 96 hour incubation
Conditions: P. falciparum luciferase reporter growth; series mostly up to 28.7 µM; activity change, negative = inhibition: at the top concentration
Summary of the method: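 Luminescence readout: decreased luciferase signal marks inhibited growth of reporter-expressing P. falciparum in infected red cells (2% hematocrit, 0.05% parasitemia final), exposed to compound two generations (96 h, 37 C, 5% CO2).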
% is set by controls: 0 for no effect and ±100 for the full control effect; potency is the fitted concentration of half-maximal effect.

SMILES	Potency	activity change, negative = inhibition
CCN1C(=O)S/C(=C/c2c(OCc3ccc(C(=O)O)cc3)ccc3ccccc23)C1=O	active: 6.57 µM	
CCCCn1c(NC(C)=O)c(C#N)c2nc3ccccc3nc21	inconclusive: 4.15 µM [inhibitor, partial curve, poor fit]	
CCN(CC)S(=O)(=O)c1ccc(NC(=O)c2nc3nc(C)cc(C)n3n2)cc1	inconclusive: 0.0828 µM [inhibitor, full curve, poor fit]	
Cc1c(C(=O)Nc2ccccc2)csc1-c1ccccc1	inconclusive: 14.7 µM [inhibitor, partial curve]	
CCC(Oc1ccccc1)C(=O)Nc1ccc(C)c(S(=O)(=O)N2CCOCC2)c1 (centres undefined)	inconclusive: 9.28 µM [inhibitor, partial curve, poor fit]	
COc1cnc(-c2ccccn2)nc1Sc1c(Cl)cccc1Cl	active: 2.08 µM	
Cc1ccccc1C(=O)Oc1ccccc1C(=O)N1CCOCC1	active: 8.28 µM	
CCc1nn2c(=O)cc(CSCC(=O)Nc3ccccc3F)nc2s1	inconclusive: 20.8 µM [inhibitor, partial curve, poor fit]	
CC(C)CN1CCN(Cc2ccc(CN3CCCCC3)s2)CC1CCO (centres undefined)	inconclusive: 18.5 µM [inhibitor, single point]	
CCNC(=O)/C(=C\C=C\c1ccccc1)NC(=O)c1ccc(Br)o1	inconclusive: 13.1 µM [inhibitor, single point]	
COC(=O)C(NC(C)=O)(Nc1nc2c(C)cc(C)cc2s1)C(F)(F)F (centres undefined)	inconclusive: 14.7 µM [inhibitor, partial curve, poor fit]	
COCCN1C(=O)c2cc(C(=O)Nc3ccc(C)c(F)c3)ccc2C1Nc1ccc(C)c(F)c1 (centres undefined)	inconclusive: 18.5 µM [inhibitor, single point]	
CCN(CC)CCCN1C(=O)C(O)=C(C(C)=O)C1c1cccc(OC)c1 (centres undefined)	inconclusive: 18.5 µM [inhibitor, single point]	
COc1ccc(OC)c(C2=NOC(C(=O)N3CCC4(CC3)OCCO4)C2)c1 (centres undefined)	inconclusive: 18.5 µM [inhibitor, single point]	
CC(=O)Nc1ccc(NS(=O)(=O)Cc2ccccc2)cc1	inconclusive: 18.5 µM [inhibitor, single point]	
CN(C)CCN(C(=O)c1ccc2c(c1)CCCC2)c1nc2c(F)cccc2s1		inactive: -25.3%
CC(C)(C)c1nn(-c2ccccc2)c2[nH]c(=O)c(CNCc3ccc4c(c3)OCO4)cc12	active: 0.329 µM	

SMILES	Potency	activity change, negative = inhibition
O=C(NC1CCN(Cc2ccc3ccccc3c2)CC1)c1ccccc1	inconclusive: 18.5 µM [inhibitor, single point]	
COCCNC(=O)/C(C#N)=C/c1ccc(OCC(=O)NC2CCCCC2)cc1		inactive: 4.3%
COc1cccc(N(CC(=O)Nc2cccnc2)S(C)(=O)=O)c1		inactive: 0%
CCN1CCN(CCNC(=O)c2ccc(/C=C3/Sc4ccccc4N(Cc4cccc(Cl)c4)C3=O)cc2)CC1	inconclusive: 2.33 µM [inhibitor, full curve]	
Cc1nnc2n(C3CCCCC3)c(=O)c3c4c(sc3n12)COC(C)(C)C4	inconclusive: 9.28 µM [inhibitor, single point]	
O=C1CCc2cc(NS(=O)(=O)c3ccc([N+](=O)[O-])cc3)cc3c2N1CC3		inactive: 0.11%
O=C(c1ccc(COc2c(F)c(F)c(F)c(F)c2F)o1)N1CCOCC1	active: 13.1 µM	
Cc1occc1-c1nnc(SCC(=O)Nc2ccccc2)n1Cc1ccccc1		inactive: 86.3%
COC(=O)[C@@]1(Cc2ccc(F)cc2)[C@H]2c3cc(C(=O)N4CCCC4)n(CCc4ccccn4)c3C[C@H]2CN1C(=O)c1ccccc1	active: 2.08 µM	
O=C(CNC(=O)C1CCCCC1)Nc1ccccc1		inactive: 84.8%
CCOC(=O)CNC(=O)c1cn(CC(C)C)c(=O)c2cc(OC)c(OC)cc12	inconclusive: 2.94 µM [inhibitor, full curve, poor fit]	
Fc1ccccc1CNc1cc(Cl)cc(Cl)c1		inactive: -14.2%
Cn1nnnc1Sc1c(Cl)cccc1[N+](=O)[O-]	inconclusive: 11.7 µM [inhibitor, single point]	
COc1ccc(NC(=O)CN2C(=O)COc3ccc(S(=O)(=O)N4CCOCC4)cc32)cc1Cl	inconclusive: 18.5 µM [inhibitor, partial curve, poor fit]	
O=C(COC(=O)c1ncc(Cl)c(Cl)c1Cl)c1ccc(Cl)s1	inconclusive: 2.33 µM [inhibitor, partial curve]	
CCC(C(=O)OCC(=O)Nc1cc(Cl)ccc1Cl)c1ccccc1 (centres undefined)	inconclusive: 5.86 µM [inhibitor, single point]	
CCOC(=O)N1CCC(=NNc2nc3ccccc3s2)CC1	inconclusive: 10.4 µM [inhibitor, single point]	

In another format: 7 of the compounds above

| SMILES | Potency | activity change, negative = inhibition |
| --- | --- | --- |
| O=C(NC1CCN(Cc2ccc3ccccc3c2)CC1)c1ccccc1 | inconclusive: 18.5 µM [inhibitor, single point] |  |
| COCCNC(=O)/C(C#N)=C/c1ccc(OCC(=O)NC2CCCCC2)cc1 |  | inactive: 4.3% |
| COc1cccc(N(CC(=O)Nc2cccnc2)S(C)(=O)=O)c1 |  | inactive: 0% |
| CCN1CCN(CCNC(=O)c2ccc(/C=C3/Sc4ccccc4N(Cc4cccc(Cl)c4)C3=O)cc2)CC1 | inconclusive: 2.33 µM [inhibitor, full curve] |  |
| Cc1nnc2n(C3CCCCC3)c(=O)c3c4c(sc3n12)COC(C)(C)C4 | inconclusive: 9.28 µM [inhibitor, single point] |  |
| O=C1CCc2cc(NS(=O)(=O)c3ccc([N+](=O)[O-])cc3)cc3c2N1CC3 |  | inactive: 0.11% |
| O=C(c1ccc(COc2c(F)c(F)c(F)c(F)c2F)o1)N1CCOCC1 | active: 13.1 µM |  |
